Data taken from the supplement of paper PMC4604168 (melanoma cell lines).
This is one part of the list. Repeats are few or missing, and single values can be far off.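 The apoptosis fraction was the count of cleaved-PARP antibody-stained nuclei relative to all DNA-stained nuclei, imaged in 1,536-well plates. Screening doses were set so most cells survived, and baseline and induced cleaved-PARP levels vary greatly across cell lines.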

Key:
Assay in all cases: cleaved PARP positive nuclei fraction relative to DMSO control; melanoma cells; higher = more apoptosis
Settings in all cases: library dose: low library concentration; 72 h
[1] = system: MZ2-MEL
[2] = system: MeWo
[3] = system: RPMI7951
[4] = system: RVH-421
[5] = system: SkMel28
[6] = system: SkMel2
[7] = system: SkMel30
[8] = system: UACC62
[9] = system: WM115
[10] = system: WM1716
[11] = system: WM1745
[12] = system: WM3526
[13] = system: WM3619
[14] = system: WM451Lu

Compound	cleaved PARP positive nuclei fraction [1] [%]	cleaved PARP positive nuclei fraction [2] [%]	cleaved PARP positive nuclei fraction [3] [%]	cleaved PARP positive nuclei fraction [4] [%]	cleaved PARP positive nuclei fraction [5] [%]	cleaved PARP positive nuclei fraction [6] [%]	cleaved PARP positive nuclei fraction [7] [%]	cleaved PARP positive nuclei fraction [8] [%]	cleaved PARP positive nuclei fraction [9] [%]	cleaved PARP positive nuclei fraction [10] [%]	cleaved PARP positive nuclei fraction [11] [%]	cleaved PARP positive nuclei fraction [12] [%]	cleaved PARP positive nuclei fraction [13] [%]	cleaved PARP positive nuclei fraction [14] [%]
CCCCCCCCCCCCCCCCCCOP(=O)([O-])OC1CC[N+](C)(C)CC1 [Perifosine] + Cn1sc(=O)n(Cc2ccccc2)c1=O [TDZD-8] (first compound 0.4 µM, partner dose 0.4 µM)	69.5	77.5	130	216	103	67.5	40.8	182	124	39	108	85.8	92.2	63.7
CCCCCCCCCCCCCCCCCCOP(=O)([O-])OC1CC[N+](C)(C)CC1 [Perifosine] + Cn1c(Nc2ccc(C(F)(F)F)cc2)nc2cc(Oc3ccnc(-c4ncc(C(F)(F)F)[nH]4)c3)ccc21 [CHIR265] (first compound 0.4 µM, partner dose 0.08 µM)	74.9	66.6	90.3	177	79.3	347	157	553	399	41.4	146	60.4	128	52.3
CC[C@]1(O)C[C@H]2CN(CCc3c([nH]c4ccccc34)[C@@](C(=O)OC)(c3cc4c(cc3OC)N(C=O)[C@H]3[C@@](O)(C(=O)OC)[C@H](OC(C)=O)[C@]5(CC)C=CCN6CC[C@]43[C@@H]65)C2)C1 [vincristine] + CN(c1ncccc1CNc1nc(Nc2ccc3c(c2)CC(=O)N3)ncc1C(F)(F)F)S(C)(=O)=O [PF562271] (first compound 0.0001 µM, partner dose 0.08 µM)	181	149	79.5	208	84	175	291	329	1080	158	101	52.9	244	166
O=C(/C=C/c1cccnc1)NCCCCC1CCN(C(=O)c2ccccc2)CC1 + NC(=O)c1ccc(N(C(N)=O)c2c(F)cccc2F)nc1-c1ccc(F)cc1F [VX702] (first compound 0.01 µM, partner dose 0.4 µM)	805	72.7	57.9	217	197	1040	97.2	263	234	41.6	101	87.1	127	107
Cc1ccc(Nc2nccc(N(C)c3ccc4c(C)n(C)nc4c3)n2)cc1S(N)(=O)=O [Pazopanib] + COc1ccc(Cl)c(Nc2nc3ccccc3nc2NS(=O)(=O)c2cccc(NC(=O)C(C)(C)N)c2)c1 [XL147] (first compound 0.4 µM, partner dose 0.8 µM)	141	142	141	73.1	82.4	104	157	201	112	83.4	103	120	119	341
O=c1[nH]nc(Sc2ncc([N+](=O)[O-])s2)n1-c1ccc2c(c1)OCCO2 + CCN(CC)CCNC(=O)c1c(C)[nH]c(/C=C2\C(=O)Nc3ccc(F)cc32)c1C [sunitinib] (first compound 0.2 µM, partner dose 0.4 µM)	60.1	51.2	204	46.4	75.1	29.5	80.4	82	99.1	28.9	97.1	31.5	90.3	102
O=c1[nH]nc(Sc2ncc([N+](=O)[O-])s2)n1-c1ccc2c(c1)OCCO2 + CC(=O)c1c(C)c2cnc(Nc3ccc(N4CCNCC4)cn3)nc2n(C2CCCC2)c1=O [palbociclib] (first compound 0.2 µM, partner dose 0.04 µM)	136	55.1	84.1	115	37.5	39.1	120	127	133	47.2	112	86.1	103	47.5
CC[C@]1(O)C[C@H]2CN(CCc3c([nH]c4ccccc34)[C@@](C(=O)OC)(c3cc4c(cc3OC)N(C=O)[C@H]3[C@@](O)(C(=O)OC)[C@H](OC(C)=O)[C@]5(CC)C=CCN6CC[C@]43[C@@H]65)C2)C1 [vincristine] + Cc1nc(Nc2ncc(C(=O)Nc3c(C)cccc3Cl)s2)cc(N2CCN(CCO)CC2)n1 [dasatanib] (first compound 0.0001 µM, partner dose 0.004 µM)	185	301	119	55.7	118	81.5	169	295	2480	96.6	154	158	191	63.8
Cc1cc(Nc2cc(N3CCN(C)CC3)nc(Sc3ccc(NC(=O)C4CC4)cc3)n2)n[nH]1 [Tozasertib] + Cn1c(Nc2ccc(C(F)(F)F)cc2)nc2cc(Oc3ccnc(-c4ncc(C(F)(F)F)[nH]4)c3)ccc21 [CHIR265] (first compound 0.006 µM, partner dose 0.08 µM)	89.5	226	283	105	85.6	74.7	235	626	757	84.5	162	134	145	57.6
COc1cc([C@@H]2c3cc4c(cc3[C@@H](O[C@@H]3O[C@@H]5CO[C@@H](C)O[C@H]5[C@H](O)[C@H]3O)[C@H]3COC(=O)[C@H]23)OCO4)cc(OC)c1O [etoposide] + CCCCCCCCc1ccc(CCC(N)(CO)CO)cc1 [fingolimod] (first compound 0.02 µM, partner dose 2 µM)	54.5	237	118	235	97.5	105	49.7	59.7	125	–	124	206	138	96.2
Cc1ccc(Nc2nccc(N(C)c3ccc4c(C)n(C)nc4c3)n2)cc1S(N)(=O)=O [Pazopanib] + O=C(O)[C@@H]1[O][Sb](=[O])([O][Sb]2(=[O])[O][C@H]([C@H](O)CO)[C@H](O)[C@H](C(=O)O)[O]2)[O][C@H]([C@H](O)CO)[C@@H]1O [stibogluconate] (first compound 0.4 µM, partner dose 2 µM)	115	613	158	172	81.8	125	102	62.3	72.8	4160	93.1	86.3	111	45.8
